According to publication PMC12731528 (Chemistry (Weinheim an Der Bergstrasse, Germany), 2025):

Experiment: general procedure: peptide synthesis; 2-chlorotrityl (2-ClTrt) resin; DIC, Oxyma Pure, DIPEA
Conditions: late stage modification step
[1] = 220 nm, pentatrifluoroacetic acid

Q: Which “final purity (method not given)” value [1] does the source give for “(S)-2-((S)-6-amino-2-((2S,3R)-2-((S)-2-((S)-2-aminopropanamido)-5-guanidinopentanamido)-3-hydroxybutanamido)hexanamido)-N1-((4S,7S,10S,13S,14R)-7-(3-guanidinopropyl)-14-hydroxy-4-(4-(isoindolin-2-yl)butyl)-10-methyl-3,6,9,12-tetraoxo-2,5,8,11-tetraazapentadecan-13-yl)pentanediamide” here?
A: Its value is 97.6%.

Q: And the “final purity (method not given)” value (254 nm, TFA salt (56))?
A: Its value is 98.1%.

Q: What about the “final purity (method not given)” value (280 nm, TFA salt (56)) of the same substance?
A: Its value is 97.3%.

Q: And the step yield (TFA salt (56))?
A: Its step yield is 70%.

Q: For “PEPTIDE1{A.R.T.K.Q.T.A.R.[Lys(isoindoline)].[NHMe]}$$$$V2.0”, which step yield (TFA salt (56)) is on record?
A: The step yield was 70%.

Q: What does the source list for “PEPTIDE1{A.R.T.K.Q.T.A.R.[Lys(isoindoline)].[PEG3-BRD28]}$$$$V2.0”?
A: final HPLC purity [1]: 97.3%; final HPLC purity (254 nm, TFA salt (56)): 97.1%; final HPLC purity (280 nm, TFA salt (56)): 96.2%; step yield (TFA salt (56)): 51%

Q: With “PEPTIDE1{A.R.T.K.Q.T.A.R.[Lys(isoindoline)].[PEG4-BRD28]}$$$$V2.0” as the substance, how does the “final HPLC purity” value [1] read?
A: The value was 97.7%.

Q: What about the “final HPLC purity” value (254 nm, TFA salt (56)) of the same substance?
A: The value was 97.6%.

Q: And the “final HPLC purity” value (280 nm, TFA salt (56))?
A: The value was 97.3%.

Q: What about the step yield (TFA salt (56)) of the same substance?
A: Its step yield is 50%.

HELM strings list residues between dots; [ac] is acetyl, [am] amide, other brackets name non-standard units.
